Test results from US20050090649 (published 2005).
Non-standard residues stand in square brackets, D forms with d. No end group written: not given here. Aib = CC(C)(N)C(=O)O

Assay: general procedure: Fmoc solid-phase peptide synthesis in flow
Conditions: whole synthesis, based on the level of substitution of the resin

Arg-Pro-Lys-Pro-Gln-Gln-Phe-Phe-Gly-Leu-Met-Gly-Gly-Gin-Gin-Cys-Thr-Ile-Cys-Gly-Ala-Pro-Aib-Ser-Ile-Ile-NH2
crude yield: 80%

CGGQQCTICGAP[Aib]SII-NH2 (cysteine pairing not given here)
crude yield: 85%
